In assay [1] the target is T1, fibrin peptide 85 (FP13), human fibrin α-chain fragment α148-160 (human).
T1 sequence (peptide): KRLEVDIDIKIRS
The assay is described as follows: ELISA, immobilized peptide. For orientation: An ELISA detects its analyte on a solid surface through an enzyme-linked reagent.

By UniProt entry, the sequences of proteins in these tests, tags left out. Where a name states a change or a piece, a line headed by the entry shows the natural chain unless it says otherwise. Chains listed by the source or under a name are the forms on record and can include a tag or linker. Residues count along the entry.
UniProt P02751: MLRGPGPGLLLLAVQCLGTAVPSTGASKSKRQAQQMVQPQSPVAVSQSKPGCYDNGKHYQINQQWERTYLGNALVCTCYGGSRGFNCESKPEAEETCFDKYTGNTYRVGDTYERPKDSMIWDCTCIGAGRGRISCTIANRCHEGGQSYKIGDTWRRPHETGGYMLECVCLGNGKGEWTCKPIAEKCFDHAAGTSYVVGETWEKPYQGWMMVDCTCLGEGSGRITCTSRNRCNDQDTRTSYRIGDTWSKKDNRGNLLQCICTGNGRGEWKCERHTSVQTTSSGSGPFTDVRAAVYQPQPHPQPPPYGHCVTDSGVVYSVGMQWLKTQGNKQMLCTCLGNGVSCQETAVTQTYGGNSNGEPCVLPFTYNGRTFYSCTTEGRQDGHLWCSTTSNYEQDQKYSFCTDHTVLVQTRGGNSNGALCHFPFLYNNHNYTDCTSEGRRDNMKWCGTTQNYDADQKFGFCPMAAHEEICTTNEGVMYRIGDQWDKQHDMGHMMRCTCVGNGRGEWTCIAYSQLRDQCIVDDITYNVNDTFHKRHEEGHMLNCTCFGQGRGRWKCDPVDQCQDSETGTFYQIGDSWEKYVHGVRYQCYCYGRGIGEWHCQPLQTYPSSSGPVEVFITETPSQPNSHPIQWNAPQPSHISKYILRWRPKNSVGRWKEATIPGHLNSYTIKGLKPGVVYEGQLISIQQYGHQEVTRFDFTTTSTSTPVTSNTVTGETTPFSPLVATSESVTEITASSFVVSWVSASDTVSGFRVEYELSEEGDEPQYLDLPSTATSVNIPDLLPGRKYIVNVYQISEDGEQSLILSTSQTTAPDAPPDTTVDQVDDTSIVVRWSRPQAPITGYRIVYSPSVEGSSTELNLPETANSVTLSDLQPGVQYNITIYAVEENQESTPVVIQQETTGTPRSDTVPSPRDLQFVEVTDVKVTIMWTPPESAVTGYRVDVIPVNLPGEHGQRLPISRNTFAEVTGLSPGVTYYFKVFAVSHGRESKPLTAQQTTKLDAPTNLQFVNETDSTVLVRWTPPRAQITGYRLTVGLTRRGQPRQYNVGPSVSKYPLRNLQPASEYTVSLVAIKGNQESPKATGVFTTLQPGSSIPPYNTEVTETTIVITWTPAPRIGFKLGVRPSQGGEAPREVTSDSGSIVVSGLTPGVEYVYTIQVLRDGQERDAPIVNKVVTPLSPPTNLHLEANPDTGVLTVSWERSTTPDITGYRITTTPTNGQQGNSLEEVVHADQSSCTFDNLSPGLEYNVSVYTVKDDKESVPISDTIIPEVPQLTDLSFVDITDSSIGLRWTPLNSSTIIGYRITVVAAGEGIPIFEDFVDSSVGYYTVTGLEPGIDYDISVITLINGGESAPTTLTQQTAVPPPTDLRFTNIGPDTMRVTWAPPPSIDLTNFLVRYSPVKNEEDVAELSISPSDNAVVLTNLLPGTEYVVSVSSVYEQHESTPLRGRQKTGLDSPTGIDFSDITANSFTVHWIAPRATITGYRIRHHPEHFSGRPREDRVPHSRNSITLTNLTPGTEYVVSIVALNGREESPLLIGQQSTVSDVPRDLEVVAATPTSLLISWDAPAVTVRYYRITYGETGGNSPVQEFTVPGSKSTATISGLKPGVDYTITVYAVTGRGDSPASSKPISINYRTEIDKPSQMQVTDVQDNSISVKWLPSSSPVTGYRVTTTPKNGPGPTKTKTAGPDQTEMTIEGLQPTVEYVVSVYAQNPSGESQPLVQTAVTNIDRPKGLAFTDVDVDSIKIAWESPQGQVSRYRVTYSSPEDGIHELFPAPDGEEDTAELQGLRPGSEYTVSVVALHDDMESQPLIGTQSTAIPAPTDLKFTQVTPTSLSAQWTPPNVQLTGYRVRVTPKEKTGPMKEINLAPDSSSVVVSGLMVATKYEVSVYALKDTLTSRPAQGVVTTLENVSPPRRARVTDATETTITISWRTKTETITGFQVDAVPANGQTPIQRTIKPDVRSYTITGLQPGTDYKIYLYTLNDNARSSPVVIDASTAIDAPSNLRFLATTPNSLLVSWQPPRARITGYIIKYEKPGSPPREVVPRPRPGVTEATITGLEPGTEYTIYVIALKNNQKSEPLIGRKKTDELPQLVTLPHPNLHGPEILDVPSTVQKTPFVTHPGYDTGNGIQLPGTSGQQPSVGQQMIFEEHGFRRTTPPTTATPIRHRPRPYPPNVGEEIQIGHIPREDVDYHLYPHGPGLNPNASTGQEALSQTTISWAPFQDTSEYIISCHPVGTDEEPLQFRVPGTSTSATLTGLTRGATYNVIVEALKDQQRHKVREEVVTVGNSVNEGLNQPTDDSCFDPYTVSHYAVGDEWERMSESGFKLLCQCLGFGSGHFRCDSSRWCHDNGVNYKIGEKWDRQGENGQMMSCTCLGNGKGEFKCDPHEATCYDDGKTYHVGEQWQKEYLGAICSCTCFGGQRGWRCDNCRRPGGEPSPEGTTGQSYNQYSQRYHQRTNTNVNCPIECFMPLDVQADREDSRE
Fn F4-5-GST (finger domains 4-5 of human fibronectin with C-terminal GST tag) (P02751, form named): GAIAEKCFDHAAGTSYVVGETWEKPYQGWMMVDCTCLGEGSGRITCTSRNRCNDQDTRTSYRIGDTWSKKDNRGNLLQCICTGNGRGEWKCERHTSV
UniProt Q04756: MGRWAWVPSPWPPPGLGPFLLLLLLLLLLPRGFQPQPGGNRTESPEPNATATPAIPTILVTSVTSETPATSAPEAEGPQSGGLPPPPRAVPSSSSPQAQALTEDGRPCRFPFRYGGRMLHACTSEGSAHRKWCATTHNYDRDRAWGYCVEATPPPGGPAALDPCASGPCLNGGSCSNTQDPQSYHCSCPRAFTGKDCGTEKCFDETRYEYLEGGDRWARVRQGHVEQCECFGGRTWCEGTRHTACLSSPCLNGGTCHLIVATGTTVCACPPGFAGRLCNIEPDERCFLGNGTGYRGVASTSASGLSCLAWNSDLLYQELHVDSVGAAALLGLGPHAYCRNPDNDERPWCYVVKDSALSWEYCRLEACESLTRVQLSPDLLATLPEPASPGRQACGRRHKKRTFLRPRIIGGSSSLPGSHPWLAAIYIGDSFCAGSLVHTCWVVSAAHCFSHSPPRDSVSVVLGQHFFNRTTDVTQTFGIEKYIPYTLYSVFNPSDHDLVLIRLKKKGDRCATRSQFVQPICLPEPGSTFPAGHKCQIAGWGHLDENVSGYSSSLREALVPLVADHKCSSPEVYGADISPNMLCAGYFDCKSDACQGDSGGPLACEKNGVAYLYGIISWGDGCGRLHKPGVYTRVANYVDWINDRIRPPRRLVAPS
UniProt P00748, residues 20-615: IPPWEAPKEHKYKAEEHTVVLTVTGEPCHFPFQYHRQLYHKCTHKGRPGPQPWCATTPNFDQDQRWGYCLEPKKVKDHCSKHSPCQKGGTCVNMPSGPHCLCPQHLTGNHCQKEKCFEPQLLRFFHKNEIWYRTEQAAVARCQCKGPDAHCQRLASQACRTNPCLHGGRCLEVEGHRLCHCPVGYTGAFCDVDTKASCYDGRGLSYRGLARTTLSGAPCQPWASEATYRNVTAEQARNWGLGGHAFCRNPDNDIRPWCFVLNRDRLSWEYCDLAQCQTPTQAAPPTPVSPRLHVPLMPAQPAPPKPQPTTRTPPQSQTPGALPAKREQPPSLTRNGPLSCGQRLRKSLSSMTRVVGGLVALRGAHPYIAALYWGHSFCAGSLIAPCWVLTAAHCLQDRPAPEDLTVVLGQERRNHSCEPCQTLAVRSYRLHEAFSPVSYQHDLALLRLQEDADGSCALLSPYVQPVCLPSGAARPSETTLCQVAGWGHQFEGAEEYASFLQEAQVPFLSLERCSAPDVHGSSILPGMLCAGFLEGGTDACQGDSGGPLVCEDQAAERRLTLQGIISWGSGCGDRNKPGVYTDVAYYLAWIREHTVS
UniProt P00750: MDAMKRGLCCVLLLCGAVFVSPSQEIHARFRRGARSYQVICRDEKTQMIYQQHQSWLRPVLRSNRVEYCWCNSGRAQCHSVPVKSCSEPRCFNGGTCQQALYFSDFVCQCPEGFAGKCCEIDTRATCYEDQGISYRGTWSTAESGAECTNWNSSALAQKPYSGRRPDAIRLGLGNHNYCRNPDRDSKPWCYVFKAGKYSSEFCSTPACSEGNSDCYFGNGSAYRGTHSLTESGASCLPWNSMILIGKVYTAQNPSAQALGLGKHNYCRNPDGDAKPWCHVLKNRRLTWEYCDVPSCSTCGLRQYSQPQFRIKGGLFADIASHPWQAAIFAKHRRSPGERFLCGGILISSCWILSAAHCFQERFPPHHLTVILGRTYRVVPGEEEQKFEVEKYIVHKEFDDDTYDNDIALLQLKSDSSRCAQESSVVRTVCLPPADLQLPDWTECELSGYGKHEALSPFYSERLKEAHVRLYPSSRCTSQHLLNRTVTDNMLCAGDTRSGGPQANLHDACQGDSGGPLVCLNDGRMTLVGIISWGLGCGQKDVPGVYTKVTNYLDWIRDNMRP

The target in assay [2] is human islet amyloid polypeptide, full length (fl-hIAPP) (human). The assay is described as follows: pull-down with IAPP fibrils, Western blot. Background: A western blot detects proteins with antibodies after separation by electrophoresis.
The target of assay [3] is human amyloid-β peptide Aβ(1-40) (human). The assay can be described thus: pull-down with Aβ fibrils, Western blot.
Assay [4] addresses T2, amyloid fragment of transthyretin (TTR11).
T2 sequence (peptide): YTIAALLSPYS
The assay is described as follows: ELISA, immobilized peptide.

The target in assay [5] is human islet amyloid polypeptide, full length (fl-hIAPP) (human). The assay is described as follows: ELISA, immobilized peptide.
The target of assay [6] is human amyloid-β peptide Aβ(1-40) (human). The assay can be described thus: ELISA, immobilized peptide.
Assay [7] concerns the target T1, fibrin peptide 85 (FP13), human fibrin α-chain fragment α148-160 (human). The assay can be described thus: ELISA, immobilized peptide, 10 mM εACA.

Results are given in words; binding and its absence hold for the method and conditions named. For part of these data: In cells and extracts the contact can be indirect. Some entries that bind do so weakly or less than the wild type.

With “Fn F4-5-GST (finger domains 4-5 of human fibronectin with C-terminal GST tag) (from UniProt P02751 182-276)”, in assay [1], the binding entry is reported as “binds”.

With “Fn F4-GST (fourth finger domain of human fibronectin with C-terminal GST tag) (from UniProt P02751 182-228)”, the binding result in assay [2] is on record as “binds”.

“HGFa-F-GST (finger domain of human hepatocyte growth factor activator with C-terminal GST tag) (from UniProt Q04756 200-240; P08515 1-218)”: the binding result in assay [2] and in assay [3] was “binds” throughout.

Turning to “fibronectin (full-length, purified) (from UniProt P02751 32-2477)”, the binding entry in assay [1], in assay [4], in assay [5] and in assay [6] was “binds” each time.

As for “human factor XII (Hageman factor) (from UniProt P00748 20-615) (enzyme)”, the binding entry in assay [1] is “binds”.

Regarding “recombinant tissue-type plasminogen activator (tPA) (from UniProt P00750 36-562) (enzyme)”, in assay [7], the binding entry is listed as “binds”.

Turning to “tPA-F-EGF-K1-GST (finger, EGF and kringle 1 domains of human tPA with C-terminal GST tag) (from UniProt P00750 36-210)”, the binding entry in assay [2] and in assay [3] was “binds” each time.

The values above are taken from patent publication US20090202980A1.
